# Some entries share one result that the patent states for a list of compounds.
# The chains behind the UniProt entries cited, without tags or fusion partners. Residues count along the entry.
# UniProt P07237, 18-508: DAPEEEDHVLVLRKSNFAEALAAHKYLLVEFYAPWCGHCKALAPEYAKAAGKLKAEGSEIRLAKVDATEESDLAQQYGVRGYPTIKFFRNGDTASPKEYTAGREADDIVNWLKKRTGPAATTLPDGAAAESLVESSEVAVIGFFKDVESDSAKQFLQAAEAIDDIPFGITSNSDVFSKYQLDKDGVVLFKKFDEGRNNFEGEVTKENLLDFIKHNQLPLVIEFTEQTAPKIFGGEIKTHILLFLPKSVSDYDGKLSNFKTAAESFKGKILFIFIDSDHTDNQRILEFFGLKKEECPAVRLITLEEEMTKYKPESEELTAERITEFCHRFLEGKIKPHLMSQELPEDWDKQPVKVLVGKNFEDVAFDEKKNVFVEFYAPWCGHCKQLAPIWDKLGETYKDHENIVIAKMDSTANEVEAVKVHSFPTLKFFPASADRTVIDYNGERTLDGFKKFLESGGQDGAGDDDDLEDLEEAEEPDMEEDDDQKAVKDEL
# Biological target: PDIA1 (Homo sapiens, UniProt P07237)
# Assay: PDIA1 activity assay, di-E-GSSG reduction (fluorescence)
# Assay type: biochemical
# Design: His6 (6xHN, pET6xHN-N vector) (N); made in house; host or cells: Escherichia coli BL21 (DE3) NiCo
# Conditions: in comparison to parent CCF642; two independent substrates in cell free assays
# Description: PDI activity: All PDI activity assays were performed using two different substrates, insulin and di-eosin-diglutathione (di-E-GSSG) as described earlier (Vatolin et al., Ibid) with brief modifications. PDIA1 (1 μM) was incubated for 1 h with varying concentrations of PDIA1 inhibitors 642 or 642-34 (0.1, 03, 1, 5, 10, or 20 μM) in 100 mM sodium phosphate pH 7.0, 2 mM EDTA, and 1% DMSO. Bovine insulin (100 μM) and DTT (1 mM) were added to initiate the reaction. Kinetic readings were taken every minute for 2 h at 650 nm absorbance using a BioTek Synergy plate reader (BioTek Instruments, Inc., Winooski, VT, USA). For highly sensitive fluorescence-based assays, di-E-GSSG as a pseudo substrate was utilized to access the activity of PDIA1. Raturi, A.; Mutus, B., Free. Radic. Biol. Med., 43, 62-70 (2007) Known concentrations of recombinant PDIA1 were mixed with 10 mM GSH and incubated at 37° C. for 30 min in 150 mM K2HPO4/KH2PO4 (pH 7.1) buffer solution. PDI inhibitor was added into the mixture and incubated for an additional 30 min at 37° C. […] Synergy H1 plate reader (BioTek, WI, USA) was used for kinetic analysis using excitation at 518 nm, emission at 545 nm, reads of 0.1 sec/well every minute at 25° C. for 1 h. Baseline fluorescence was determined from di-E-GSSG reactions without PDI and GSH. […]
smiles,measurement,value
NC(CC1CNc2ccccc21)C(=O)NCCCOc1ccc(N2C(=O)/C(=C/c3ccc([N+](=O)[O-])s3)SC2=S)cc1 (stereo not shown) [CCF642-34],enhanced inhibition of PDIA1,up to 10 fold

# From patent US12649734B2, “Bioavailable protein disulfide isomerase inhibitors” (THE CLEVELAND CLINIC FOUNDATION, priority 2020, dated 2026)
